PubChem BioAssay AID504793 – Drosophila RNAi Screening Center | 2011

- Purpose: 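Genes required for cells to halt at G2/M after double-strand DNA breaks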 (primary screen)
- System: Drosophila S2R+ cells
- Reagents: long dsRNA against Drosophila genes, about 0.25 µg dsRNA per well
- Timing: 4 days of dsRNA, then 4 hours of drug before read-out
- Challenge: doxorubicin 0.5 µM for 4 hours to cause double-strand breaks, in cells also given a low, harmless dose of dsRNA against nbs to sensitise the assay
- Read-out: 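Mitotic index as the number of phospho-histone H3-positive cells in each well following doxorubicin, given as raw counts without normalisation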
- Scale: mitotic cells: higher = more cells in mitosis, weaker G2 arrest
- Hit rule: 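Genes are called active only when high mitotic counts were reproduced with independent dsRNAs and mitosis was checked for delay without damage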
- Calls: active = confirmed in follow-up tests; inactive = not confirmed
The screen tested about 23,000 reagents; shown is an unselected part of those that have a named target and a result. Of all reagents, 62 (0.27%) got an active call. 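Calls come from follow-up tests whose scores are not deposited, so confirmed genes may have low counts here; counts are not normalised per plate.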 Raw values are not corrected between plates. Names joined by + are all predicted targets of the reagent.

Target gene,dsRNA,"mitotic cells, replicate 1",Call
dikar,DRSC09699,6,inactive
dikar,DRSC22261,13,inactive
dikar,DRSC26562,4,inactive
CG31008,DRSC14028,13,inactive
CG31008,DRSC27234,3,inactive
CG11368,DRSC17778,8,inactive
ana1,DRSC16079,8,inactive
ana1,DRSC21825,3,inactive
ana1,DRSC30086,3,inactive
kkv,DRSC12315,2,inactive
CG4714,DRSC06883,4,inactive
CG30020,DRSC06252,13,inactive
CG30020,DRSC06730,6,inactive
Nepl19,DRSC14875,11,inactive
CG7423,DRSC20044,10,inactive
CG17375,DRSC02614,5,inactive
CG17375,DRSC29517,8,inactive
Acp76A,DRSC09665,12,inactive
Acp76A,DRSC24824,9,inactive
cv-2,DRSC03861,5,inactive
cv-2,DRSC04261,9,inactive
CG12520,DRSC09892,10,inactive
Rpn10,DRSC11876,21,inactive
Pnn,DRSC16415,4,inactive
Sec20,DRSC12295,2,inactive
Sec20,DRSC29886,4,inactive
Rh6,DRSC16823,1,inactive
Rh6,DRSC26166,4,inactive
CG31544 (retired record),DRSC12466,13,inactive
CG10663,DRSC09770,6,inactive
Ir75c,DRSC10190,4,inactive
Hrb87F,DRSC16708,3,inactive
Hrb87F,DRSC29600,6,inactive
Tes,DRSC06996,7,inactive
Scgalpha,DRSC03076,4,inactive
Scgalpha,DRSC29625,5,inactive
Ets21C,DRSC00751,4,inactive
CG6696,DRSC20004,5,inactive
CG6696,DRSC25648,4,inactive
l(3)73Ah + CG32163,DRSC21888,14,inactive
CG31360,DRSC13255,10,inactive
CG14183,DRSC10182,1,inactive
CG10734,DRSC05998,10,inactive
CG17834,DRSC02637,4,inactive
CG17834,DRSC26694,5,inactive
Lcch3,DRSC20257,13,inactive
Lcch3,DRSC22175,14,inactive
Klp3A,DRSC18676,5,inactive
Klp3A,DRSC21625,8,inactive

Part of the list above, set out differently:
{"Target gene": "Sec20", "dsRNA": "DRSC29886", "mitotic cells, replicate 1": 4, "Call": "inactive"}
{"Target gene": "Rh6", "dsRNA": "DRSC16823", "mitotic cells, replicate 1": 1, "Call": "inactive"}
{"Target gene": "Rh6", "dsRNA": "DRSC26166", "mitotic cells, replicate 1": 4, "Call": "inactive"}
{"Target gene": "CG31544 (retired record)", "dsRNA": "DRSC12466", "mitotic cells, replicate 1": 13, "Call": "inactive"}
{"Target gene": "CG10663", "dsRNA": "DRSC09770", "mitotic cells, replicate 1": 6, "Call": "inactive"}
{"Target gene": "Ir75c", "dsRNA": "DRSC10190", "mitotic cells, replicate 1": 4, "Call": "inactive"}
{"Target gene": "Hrb87F", "dsRNA": "DRSC16708", "mitotic cells, replicate 1": 3, "Call": "inactive"}
{"Target gene": "Hrb87F", "dsRNA": "DRSC29600", "mitotic cells, replicate 1": 6, "Call": "inactive"}
{"Target gene": "Tes", "dsRNA": "DRSC06996", "mitotic cells, replicate 1": 7, "Call": "inactive"}
{"Target gene": "Scgalpha", "dsRNA": "DRSC03076", "mitotic cells, replicate 1": 4, "Call": "inactive"}
{"Target gene": "Scgalpha", "dsRNA": "DRSC29625", "mitotic cells, replicate 1": 5, "Call": "inactive"}

Continued:
Target gene,dsRNA,"mitotic cells, replicate 1",Call
CG10417,DRSC04846,8,inactive
CG10417,DRSC27173,5,inactive
Nmda1,DRSC07479,6,inactive
Nmda1,DRSC26357,5,inactive
MFS18,DRSC00452,7,inactive
CG14684,DRSC14907,4,inactive
mthl3,DRSC06997,6,inactive
mthl3,DRSC24927,5,inactive
Tmtc2,DRSC24987,4,inactive
Cul2,DRSC03710,16,inactive
CG33476,DRSC22888,13,inactive
CG5282,DRSC11775,4,inactive
CG1113,DRSC12163,5,inactive
eIF2Bdelta,DRSC04058,2,inactive
BthD,DRSC19395,6,inactive
BthD,DRSC25871,,inactive
eEF1alpha2,DRSC14079,4,inactive
eEF1alpha2,DRSC16658,12,inactive
ben,DRSC20310,7,inactive
ben,DRSC21261,9,inactive
ben,DRSC29133,10,inactive
ProtA,DRSC03372,9,inactive
Prosalpha4T2,DRSC04643,2,inactive
Prosalpha4T2,DRSC28312,9,inactive
mRpS2,DRSC00550,6,inactive
CG11498,DRSC14315,15,inactive
